Results deposited as PubChem BioAssay AID652272 (Drosophila RNAi Screening Center, 2013)
Aim: 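Genome-wide knock-down search for components of Hedgehog signalling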 (primary screen). Cells: Drosophila clone 8 (Cl8) cells. Reagents: long dsRNA against Drosophila genes. Read-out: 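Plate reader light from a firefly reporter under a ptc promoter fragment that responds to Hedgehog, with Renilla light as transfection reference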. Reading the numbers: firefly Hh reporter signal: higher = more ptc reporter light; Renilla reference signal: higher = more Renilla control light. Hit rule: 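Hit when the z-score averaged over two replicates is under -2 or over +3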. Meaning of the calls: active = hit: reporter lowered or raised; inactive = not a hit.
The deposit covers about 21,000 reagents; below is an unselected part of those that have a named target and a result. In the full data, 503 (2.4%) were called active. 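Raw plate light values, not normalised; calls rest on replicate z-scores that were not deposited; hits include reporter decreases as well as increases.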 Names joined by + are all predicted targets of the reagent. No sequences are given here. Not stated in the record: the amount of reagent, the time to read-out.

| Target gene | dsRNA | firefly Hh reporter signal, replicate 1 | firefly Hh reporter signal, replicate 2 | Renilla reference signal, replicate 1 | Renilla reference signal, replicate 2 | Call |
| --- | --- | --- | --- | --- | --- | --- |
| Cyp6a20 | DRSC07380 | 1.21e5 | 51318 | 4699 | 1472 | inactive |
| lky | DRSC20682 | 70920 | 1.74e5 | 2295 | 7462 | inactive |
| CG42523 | DRSC00251 | 7.12e5 | 2.11e5 | 33606 | 7665 | inactive |
| Mrtf | DRSC08263 | 28955 | 9147 | 1328 | 1088 | active |
| Mrtf | DRSC08410 | 53308 | 21329 | 2301 | 2224 | inactive |
| Mrtf | DRSC08411 | 75258 | 31330 | 2532 | 2888 | inactive |
| Mitf | DRSC17212 | 94140 | 2.27e5 | 2553 | 9115 | inactive |
| Mitf | DRSC21056 | 5.45e5 | 2.08e5 | 30475 | 4470 | inactive |
| Hsp70Bb + Hsp70Ba + Hsp70Bc + 1 more | DRSC21247 | 56534 | 1.01e5 | 2471 | 4518 | inactive |
| Hsp70Bb + Hsp70Ba + Hsp70Bc + 1 more | DRSC21248 | 55994 | 1.24e5 | 2261 | 5930 | inactive |
| CG3199 | DRSC15467 | 90363 | 1.05e5 | 2556 | 2390 | inactive |
| CG14374 | DRSC14834 | 88538 | 74893 | 2832 | 2128 | inactive |
| Tim9a | DRSC19753 | 83762 | 3.45e5 | 2080 | 12283 | inactive |
| CG5592 | DRSC10524 | 44748 | 51753 | 4924 | 3036 | inactive |
| CG13955 | DRSC06443 | 1.60e5 | 1.09e5 | 3952 | 7600 | inactive |
| bdg | DRSC07136 | 52602 | 74464 | 3180 | 3105 | inactive |
| eIF4H2 | DRSC14582 | 1.02e5 | 90817 | 2515 | 2547 | inactive |
| CG10725 | DRSC09788 | 1.40e5 | 1.26e5 | 5657 | 4115 | inactive |
| CG12105 | DRSC08255 | 78389 | 75280 | 3585 | 3536 | inactive |
| Mccc1 | DRSC15417 | 1.27e5 | 79354 | 3170 | 2489 | inactive |
| FeCH | DRSC16948 | 1.06e5 | 66880 | 2617 | 2433 | inactive |
| na | DRSC19639 | 1.30e5 | 2.05e5 | 4903 | 9352 | inactive |
| Crtp | DRSC04604 | 1.07e5 | 60553 | 2012 | 5801 | inactive |

Hits, of those listed so far:
| Target gene | dsRNA | firefly Hh reporter signal, replicate 1 | firefly Hh reporter signal, replicate 2 | Renilla reference signal, replicate 1 | Renilla reference signal, replicate 2 | Call |
| --- | --- | --- | --- | --- | --- | --- |
| Mrtf | DRSC08263 | 28955 | 9147 | 1328 | 1088 | active |
